Laboratory results published in publication doi:10.1101/2020.06.18.159293.

What was measured:
Experiment in all cases: proximity labelling
[1] = target: N- and C-terminally FlagBirA* tagged full length ULK4 (BioID baits, hits pooled) (human) (UniProt Q96C45)
[2] = target: C-terminally FLAG-tagged full-length ULK4 (ULK4-BirA*Flag) (human) (UniProt Q96C45)
[3] = target: T1, ULK4 R39 variant (BioID bait) (human) (UniProt Q96C45)
T1 sequence: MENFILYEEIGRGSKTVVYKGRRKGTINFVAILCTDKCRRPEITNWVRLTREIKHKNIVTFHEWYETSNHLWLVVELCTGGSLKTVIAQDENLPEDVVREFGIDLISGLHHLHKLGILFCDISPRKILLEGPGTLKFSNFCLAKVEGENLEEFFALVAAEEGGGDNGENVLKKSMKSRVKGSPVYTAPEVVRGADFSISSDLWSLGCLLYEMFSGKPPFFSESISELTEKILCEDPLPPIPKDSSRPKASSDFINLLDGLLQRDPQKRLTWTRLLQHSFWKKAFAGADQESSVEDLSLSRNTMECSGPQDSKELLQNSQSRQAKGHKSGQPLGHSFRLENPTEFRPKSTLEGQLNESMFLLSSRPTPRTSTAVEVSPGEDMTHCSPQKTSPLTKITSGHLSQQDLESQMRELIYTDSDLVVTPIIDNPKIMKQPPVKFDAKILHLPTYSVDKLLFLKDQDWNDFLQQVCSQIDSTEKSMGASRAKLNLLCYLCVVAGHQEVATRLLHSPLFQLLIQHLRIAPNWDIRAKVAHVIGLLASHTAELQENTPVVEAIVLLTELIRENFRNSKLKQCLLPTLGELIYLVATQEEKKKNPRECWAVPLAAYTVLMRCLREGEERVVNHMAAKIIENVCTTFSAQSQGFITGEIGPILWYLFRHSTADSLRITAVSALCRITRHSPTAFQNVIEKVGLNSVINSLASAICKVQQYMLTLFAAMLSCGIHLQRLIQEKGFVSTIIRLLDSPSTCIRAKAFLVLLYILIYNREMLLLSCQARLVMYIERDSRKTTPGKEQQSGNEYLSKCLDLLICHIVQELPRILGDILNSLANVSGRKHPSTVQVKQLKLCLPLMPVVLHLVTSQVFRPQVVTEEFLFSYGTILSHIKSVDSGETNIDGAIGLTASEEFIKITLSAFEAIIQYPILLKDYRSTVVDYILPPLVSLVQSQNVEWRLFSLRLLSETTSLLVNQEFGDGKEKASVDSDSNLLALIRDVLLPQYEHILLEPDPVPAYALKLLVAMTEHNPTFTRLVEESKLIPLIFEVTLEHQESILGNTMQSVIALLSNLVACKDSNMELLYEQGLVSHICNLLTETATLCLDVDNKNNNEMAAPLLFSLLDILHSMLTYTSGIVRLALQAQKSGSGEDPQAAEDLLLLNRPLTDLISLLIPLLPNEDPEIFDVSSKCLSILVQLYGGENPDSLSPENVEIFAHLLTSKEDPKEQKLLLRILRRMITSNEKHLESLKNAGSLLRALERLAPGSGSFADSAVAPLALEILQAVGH

[4] = target: N-terminally FLAG-tagged ULK4 (FlagBirA*-ULK4) (human) (UniProt Q96C45)

Measured: binding

B1: PTPN14 (protein tyrosine phosphatase, non-receptor type 14) (protein, UniProt Q15678 1-1187)
chain: MPFGLKLRRTRRYNVLSKNCFVTRIRLLDSNVIECTLSVESTGQECLEAVAQRLELRETHYFGLWFLSKSQQARWVELEKPLKKHLDKFANEPLLFFGVMFYVPNVSWLQQEATRYQYYLQVKKDVLEGRLRCTLDQVIRLAGLAVQADFGDYNQFDSQDFLREYVLFPMDLALEEAVLEELTQKVAQEHKAHSGILPAEAELMYINEVERLDGFGQEIFPVKDNHGNCVHLGIFFMGIFVRNRIGRQAVIYRWNDMGNITHNKSTILVELINKEETALFHTDDIENAKYISRLFATRHKFYKQNKICTEQSNSPPPIRRQPTWSRSSLPRQQPYILPPVHVQCGEHYSETHTSQDSIFHGNEEALYCNSHNSLDLNYLNGTVTNGSVCSVHSVNSLNCSQSFIQASPVSSNLSIPGSDIMRADYIPSHRHSAIIVPSYRPTPDYETVMRQMKRGILHTDSQSQSLRNLNIINTHAYNQPEDLVYSQPEMRERHPYTVPYGPQGVYSNKLVSPSDQRNPKNNVVPSKPGASAISHTVSTPELANMQLQGSHNYSTAHMLKNYLFRPPPPYPRPRPATSTPDLASHRHKYVSGSSPDLVTRKVQLSVKTFQEDSSPVVHQSLQEVSEPLTATKHHGTVNKRHSLEVMNSMVRGMEAMTLKSLHLPMARRNTLREQGPPEEGSGSHEVPQLPQYHHKKTFSDATMLIHSSESEEEEEEAPESVPQIPMLREKMEYSAQLQAALARIPNKPPPEYPGPRKSVSNGALRQDQASLPPAMARARVLRHGPAKAISMSRTDPPAVNGASLGPSISEPDLTSVKERVKKEPVKERPVSEMFSLEDSIIEREMMIRNLEKQKMAGLEAQKRPLMLAALNGLSVARVSGREENRVDATRVPMDERFRTLKKKLEEGMVFTEYEQIPKKKANGIFSTAALPENAERSRIREVVPYEENRVELIPTKENNTGYINASHIKVVVGGAEWHYIATQGPLPHTCHDFWQMVWEQGVNVIAMVTAEEEGGRTKSHRYWPKLGSKHSSATYGKFKVTTKFRTDSVCYATTGLKVKHLLSGQERTVWHLQYTDWPDHGCPEDVQGFLSYLEEIQSVRRHTNSMLEGTKNRHPPIVVHCSAGVGRTGVLILSELMIYCLEHNEKVEVPMMLRLLREQRMFMIQTIAQYKFVYQVLIQFLQNSRLI
binds: [1] | [2] | [3] | [4]

No constants are given. Whether binding was seen depends on the method and setting. Binding seen in cells or lysates may run through a third protein. These calls come from enrichment with a bait or labelling near it, and not all partners need be listed.
